Assay results: US20060057679A1
No constants are given. Whether binding was seen depends on the method and setting. Some binding calls cover weakened binding; strength is not graded here.

Columns and labels:
[1] = target: RAGE-Ig fusion protein (SEQ ID NO:6) (human); assay: competition ELISA: 25 nM RAGE-Ig preincubated with 10 uM competitor, then on coated recombinant rat HMGB1; bound RAGE-Ig detected with anti-human IgG-HRP, OD 650 nm
[2] = target: RAGE-Ig fusion protein (SEQ ID NO:6) (human); assay: competition ELISA, competitor at 10 µM, RAGE-Ig at 25 nM, coated rat HMGB1
[3] = target: RAGE-Ig fusion protein (SEQ ID NO:6) (human); assay: competition ELISA, competitor against coated HMGB1 for RAGE-Ig

Row | Binder | binding [1] | binding [2] | binding [3]
1 | KLKEKYEKDIAAYRAKGKPDAAKKGVVKAEKSKK [HMGB1 peptide 150-183] | binds | binds | 
2 | HMGB1 A box (amino acids 9-85 of the HMGB1 sequence) (peptide) peptide: PRGKMSSYAFFVQTCREEHKKKHPDASVNFSEFSKKCSERWKTMSAKEKGKFEDMAKADKARYEREMKTYIPPKGET | binds | binds | binds
3 | KDIAAYRAKGKPDAAKKG [HMGB1 peptide 157-174] | binds | binds | 
4 | HMGB1 B box (amino acids 91-169 of the HMGB1 sequence) (peptide) peptide: DPNAPKRPPSAFFLFCSEYRPKIKGEHPGLSIGDVAKKLGEMWNNTAADDKQPYEKKAAKLKEKYEKDIAAYRAKGKPD | binds | binds | binds

Continued, values first:

Row | binding [1] | binding [2] | binding [3] | Binder
5 | binds |  |  | TAADDKQPYEKKAAKLKE [huHMGB1-136-153]
6 | binds |  |  | EDMAKADKARYEREMKTY [huHMGB1-61-78]
7 | binds |  |  | SIGDVAKKLGEMWNNTAA [huHMGB1-121-138]
8 | binds |  |  | LKEKYEKDIAAYRAKGKP [huHMGB1-151-168]
9 | binds |  |  | HPDASVNFSEFSKKCSER [huHMGB1-31-48]
10 | binds |  |  | SERWKTMSAKEKGKFEDM [huHMGB1-46-63]
